{"source": "PubChem BioAssay AID1159584 | Peter MacCallum Cancer Centre | 2016", "test": "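Genes that CDH1-null MCF10A cells selectively depend on to survive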 (primary screen)", "cell system": "human MCF10A breast epithelial cells, parental and CDH1-null", "reagents": "siRNA against human genes", "read-out": "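Cell viability by CellTiter-Glo ATP luminescence, each line scaled to the mean of mock wells across plates, then CDH1-null over parental ratio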", "reading the numbers": "CDH1-null / parental viability ratio: higher = CDH1-null cells survive relatively better than parental", "note": "In all, the deposit lists about 18,000 reagents; this is an unselected part. Not all columns of the deposit are shown. Not stated in the record: the amount of reagent, the time to read-out."}
{"gene knocked down": "URI1", "CDH1-null / parental viability ratio": 0.7}
{"gene knocked down": "VAPA", "CDH1-null / parental viability ratio": 1.04}
{"gene knocked down": "CCR2", "CDH1-null / parental viability ratio": 0.78}
{"gene knocked down": "DNAI1", "CDH1-null / parental viability ratio": 1.13}
{"gene knocked down": "APP", "CDH1-null / parental viability ratio": 0.96}
{"gene knocked down": "ABHD17A", "CDH1-null / parental viability ratio": 1.07}
{"gene knocked down": "CPB2", "CDH1-null / parental viability ratio": 1.14}
{"gene knocked down": "SPACA1", "CDH1-null / parental viability ratio": 0.98}
{"gene knocked down": "DTNB", "CDH1-null / parental viability ratio": 1.28}
{"gene knocked down": "ERCC6", "CDH1-null / parental viability ratio": 0.92}
{"gene knocked down": "KTI12", "CDH1-null / parental viability ratio": 1.11}
{"gene knocked down": "EXOC6", "CDH1-null / parental viability ratio": 1.17}
{"gene knocked down": "KIF2B", "CDH1-null / parental viability ratio": 1.12}
{"gene knocked down": "RGS8", "CDH1-null / parental viability ratio": 0.95}
{"gene knocked down": "ABCA4", "CDH1-null / parental viability ratio": 0.94}
{"gene knocked down": "NRP1", "CDH1-null / parental viability ratio": 1.05}
{"gene knocked down": "ARHGAP18", "CDH1-null / parental viability ratio": 0.73}
{"gene knocked down": "SLC16A4", "CDH1-null / parental viability ratio": 1.19}
{"gene knocked down": "KIF22", "CDH1-null / parental viability ratio": 0.9}
{"gene knocked down": "FANCA", "CDH1-null / parental viability ratio": 0.83}
{"gene knocked down": "ADCYAP1", "CDH1-null / parental viability ratio": 0.85}
{"gene knocked down": "OR4C45", "CDH1-null / parental viability ratio": 1.09}
{"gene knocked down": "NDUFV3", "CDH1-null / parental viability ratio": 1.11}
{"gene knocked down": "RBAKDN", "CDH1-null / parental viability ratio": 0.84}
{"gene knocked down": "TRIM43", "CDH1-null / parental viability ratio": 0.98}
{"gene knocked down": "FAAH2", "CDH1-null / parental viability ratio": 0.97}
{"gene knocked down": "VN1R1", "CDH1-null / parental viability ratio": 0.81}
{"gene knocked down": "GAGE6", "CDH1-null / parental viability ratio": 1.27}
{"gene knocked down": "GPR152", "CDH1-null / parental viability ratio": 0.8}
{"gene knocked down": "EPHB3", "CDH1-null / parental viability ratio": 0.75}
{"gene knocked down": "UBAC2", "CDH1-null / parental viability ratio": 1}
{"gene knocked down": "TIMP2", "CDH1-null / parental viability ratio": 1}
{"gene knocked down": "CTLA4", "CDH1-null / parental viability ratio": 1.09}
{"gene knocked down": "SIRT4", "CDH1-null / parental viability ratio": 1.13}
{"gene knocked down": "IMP3", "CDH1-null / parental viability ratio": 1.11}

As entered above:
For “CDH1-null / parental viability ratio”, NDUFV3 has 1.11
ABCA4, CDH1-null / parental viability ratio: 0.94
DNAI1, CDH1-null / parental viability ratio → 1.13
For “CDH1-null / parental viability ratio”, NRP1 shows 1.05
